Results are given in words; binding and its absence hold for the method and conditions named. Binding seen in cells or lysates may run through a third protein. Some results given as binding are weak or reduced against the parent protein; the word gives no strength.
Assays:
[1] = target: phosphorylated epidermal growth factor receptor (pEGFR) (mouse (endogenous in MEF)) (UniProt Q01279); experiment: co-IP; cytosolic and nuclear extracts of cells treated with or without pyrotinib (1 uM), immunoprecipitated with anti-EGFR or anti-pEGFR antibody, protein-A/G agarose, immunoblot
[2] = target: phosphorylated epidermal growth factor receptor (pEGFR) (mouse (endogenous in MEF)) (UniProt Q01279); experiment: co-IP; 1 ug anti-pEGFR antibody incubated with whole lysate of MEF-derived cells treated with or without pyrotinib (1 uM), captured on protein-A/G agarose overnight at 4 C, washed 5 times, immunoblot

Protein sequences, listed by entry. Tags and fused reporters are not part of them. Residues count along the entry.
UniProt P24807, residues 27-53: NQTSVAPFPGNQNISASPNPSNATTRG

Substance: Cluster of differentiation 24 (CD24) (from UniProt P24807 27-53)
- binding [1]: binds
- binding [2]: binds

Source: publication PMC9563285
